The target of this test is β-catenin (human (endogenous in HaCaT)) (UniProt P35222). Kind of test: co-IP.

Sequences of proteins named here, by UniProt entry; tags and fusion partners are left off.
UniProt P35222: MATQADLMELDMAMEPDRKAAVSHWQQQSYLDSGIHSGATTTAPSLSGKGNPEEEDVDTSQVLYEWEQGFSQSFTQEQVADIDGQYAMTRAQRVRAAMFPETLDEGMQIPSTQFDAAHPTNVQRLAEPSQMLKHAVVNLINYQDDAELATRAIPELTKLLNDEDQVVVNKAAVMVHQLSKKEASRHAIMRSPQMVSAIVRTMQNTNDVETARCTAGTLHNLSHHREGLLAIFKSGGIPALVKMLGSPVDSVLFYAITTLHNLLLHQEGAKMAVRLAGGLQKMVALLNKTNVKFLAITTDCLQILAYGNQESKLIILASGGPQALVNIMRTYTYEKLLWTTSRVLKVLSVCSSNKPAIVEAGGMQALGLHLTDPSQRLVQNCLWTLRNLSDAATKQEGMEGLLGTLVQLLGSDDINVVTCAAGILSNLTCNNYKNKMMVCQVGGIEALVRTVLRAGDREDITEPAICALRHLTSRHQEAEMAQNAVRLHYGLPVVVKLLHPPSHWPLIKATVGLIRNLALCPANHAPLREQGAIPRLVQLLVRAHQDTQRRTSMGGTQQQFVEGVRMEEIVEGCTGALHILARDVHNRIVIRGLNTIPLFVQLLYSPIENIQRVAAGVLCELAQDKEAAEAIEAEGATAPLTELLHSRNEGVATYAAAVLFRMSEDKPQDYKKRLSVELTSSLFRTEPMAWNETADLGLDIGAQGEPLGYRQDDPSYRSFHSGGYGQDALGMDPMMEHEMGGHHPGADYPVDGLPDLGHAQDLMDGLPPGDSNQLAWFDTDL
UniProt Q96BN8: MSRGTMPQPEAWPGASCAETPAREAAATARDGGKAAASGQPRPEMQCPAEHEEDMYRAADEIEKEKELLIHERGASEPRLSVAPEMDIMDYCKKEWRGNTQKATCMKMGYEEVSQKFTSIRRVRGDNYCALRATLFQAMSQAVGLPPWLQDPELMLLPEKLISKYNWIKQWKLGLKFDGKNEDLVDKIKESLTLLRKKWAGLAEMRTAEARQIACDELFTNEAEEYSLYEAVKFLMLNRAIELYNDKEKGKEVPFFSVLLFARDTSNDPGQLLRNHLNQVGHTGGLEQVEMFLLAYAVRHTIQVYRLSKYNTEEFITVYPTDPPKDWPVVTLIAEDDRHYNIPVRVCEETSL

These are yes or no findings as the source states them, for the method shown. In cells and extracts the contact can be indirect. Some entries that bind do so weakly or less than the wild type.

The text below walks through data of article doi:10.1101/2025.01.08.631848.

With “OTULIN (OTU DUB with linear linkage specificity) (from UniProt Q96BN8 1-352) (enzyme)”, the binding result was “binds”.

B1: Shank Associated RH Domain Interacting protein (SHARPIN) (protein, UniProt Q9H0F6 1-387)
chain: MAPPAGGAAAAASDLGSAAVLLAVHAAVRPLGAGPDAEAQLRRLQLSADPERPGRFRLELLGAGPGAVNLEWPLESVSYTIRGPTQHELQPPPGGPGTLSLHFLNPQEAQRWAVLVRGATVEGQNGSKSNSPPALGPEACPVSLPSPPEASTLKGPPPEADLPRSPGNLTEREELAGSLARAIAGGDEKGAAQVAAVLAQHRVALSVQLQEACFPPGPIRLQVTLEDAASAASAASSAHVALQVHPHCTVAALQEQVFSELGFPPAVQRWVIGRCLCVPERSLASYGVRQDGDPAFLYLLSAPREAPATGPSPQHPQKMDGELGRLFPPSLGLPPGPQPAASSLPSPLQPSWSCPSCTFINAPDRPGCEMCSTQRPCTWDPLAAAST
For B1, the binding result is given as “binds”.
